Screening data, single-dose tests

From ChEMBL document CHEMBL3988442, “University of Dundee, Small-Polar-MMV Screening Library” (2021).

Values are the deposited “Percent Effect”, in %. The controls that fix the scale are not given in the record; negative values are as filed. The compounds are a random part of those screened. Two or more numbers in one place are separate tests of the same structure; such repeats can differ widely.

Leishmania in macrophages: 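Cell assay of Leishmania donovani living inside macrophages; the read-out is not stated. Tested at 30 µM. The record gives no direction; compounds that gave an IC50 in retests scored well above the rest, so higher reads as stronger inhibition. Of about 69,000 compounds tested this way, about 1,000 (1.5%) reached 50% or more in at least one test.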
Toxoplasma: 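Assay of Toxoplasma gondii numbers, read through their beta-galactosidase reporter with a colour substrate. Concentration: 10 µM. The record gives no direction; the compounds picked for IC50 retests had high values, so higher reads as fewer parasites. About 67,000 compounds were tested under these conditions; 0.38% (about 260) showed 50% or more at least once.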

For Cc1cc(C(=O)NS(=O)(=O)Cc2ccon2)c(C)n1C(C)C the result was Leishmania in macrophages: 19.2%; Toxoplasma: 22.19%.
For O=C(NCCN1CCCc2ccccc21)c1scnc1Cl the result was Leishmania in macrophages: 26.77%; Toxoplasma: -3.829%.
For OCCn1cc(CN2CCN(CCOCC(F)(F)F)CC2)cn1 the result was Leishmania in macrophages: -7.251%; Toxoplasma: 0%.
For CCCOc1ccc(CNC2CCCc3c2cnn3CC)cc1OC (centres undefined) the result was Leishmania in macrophages: 14.36%.
For CCc1n[nH]c(C(=O)N2CCC3(CCCN(CCOC)C3=O)C2)c1C (centres undefined) the result was Leishmania in macrophages: -3.941%; Toxoplasma: -5.857%.
For CC(Cn1cccn1)NC(=O)NCc1ccc(S(C)(=O)=O)cc1 (centres undefined) the result was Leishmania in macrophages: 9.517%; Toxoplasma: -10.67%.
For COC(=O)[C@@H]1Cc2ncn(C)c2CN1S(=O)(=O)c1cccs1 the result was Leishmania in macrophages: -12.08%; Toxoplasma: -14.7%.
For O=C(O)C(F)(F)F.O=C(c1ccco1)N1CCOCC2(C1)CN(c1cccnc1)C(=O)CO2 (centres undefined) the result was Leishmania in macrophages: -4.193%; Toxoplasma: 7.964%.
For CCc1ccc(NC(=O)c2cnc(N3CCN(C)CC3)nc2C)cc1 the result was Leishmania in macrophages: 28.97%; Toxoplasma: -4.102%.
For Cc1nn(-c2ccccc2)c(C)c1CNC1CCc2ncnn2C1 (centres undefined) the result was Leishmania in macrophages: 38.36%; Toxoplasma: -25.64%.
For O=c1ccc(-c2ccccc2F)nn1CN1CCCCCC1 the result was Leishmania in macrophages: -5.737%; Toxoplasma: 5.586%.
For CN1CCC(n2nc(Cc3cccc(Cl)c3)nc2Cn2ccnc2)CC1 the result was Leishmania in macrophages: 15.54%; Toxoplasma: 19.56%.
For COc1cc(NC(=O)NCC2CCCO2)cc(OC)c1 (centres undefined) the result was Leishmania in macrophages: -12.69%; Toxoplasma: -10.23%.
For c1ccc(CO[C@H]2CN(c3ncccn3)C[C@@]23CCCO3)cc1 the result was Leishmania in macrophages: -4.1%; Toxoplasma: -14.79%.
For Cc1ccc(-c2c(-c3ccccc3)ncn2CCCN2CCOCC2)o1 the result was Leishmania in macrophages: 5.464%; Toxoplasma: -9.402%.
For O=C(Nc1cccc(OCC(F)F)n1)c1ccncc1 the result was Leishmania in macrophages: 5.727%; Toxoplasma: -16.74%.
For CCOCCOC(C)C(=O)NCc1cn2cc(Cl)ccc2n1 (centres undefined) the result was Leishmania in macrophages: -2.72%; Toxoplasma: -3.256%.
For COc1ccc(CN(C)CC(=O)NC2(C)CCS(=O)(=O)C2)cc1F (centres undefined) the result was Leishmania in macrophages: -14.88%; Toxoplasma: -4.272%.
For CC(C)Oc1ncc(C(=O)N2CCc3ccc(O)cc3C2)cc1Cl the result was Leishmania in macrophages: 35.97%; Toxoplasma: 1.391%.
For CC(C)c1cc(NC(=O)CN2CCC(N3CCCCC3)CC2)on1 the result was Leishmania in macrophages: 27.74%; Toxoplasma: -5.117%.
For COCCN1CCC(C)(c2cc(O)[nH]n2)CC1 the result was Leishmania in macrophages: 33.83%; Toxoplasma: -1.292%.
For CN1CC(=O)N(C2CCNC2)Cc2c(NC3CCCC3)ncnc21 (centres undefined) the result was Leishmania in macrophages: 14.3%; Toxoplasma: -6.311%.
For CNC(=O)NC(=O)CN1CCc2c(Br)ccc(F)c2C1 the result was Leishmania in macrophages: 13.91%; Toxoplasma: 5.967%.
For CCc1noc(CS(=O)(=O)Cc2ccccc2C)n1 the result was Leishmania in macrophages: 0.4509%; Toxoplasma: -1.831%.
For CN(Cc1cnn(C)c1)c1nccc(-c2cc(C(=O)O)ccn2)n1 the result was Leishmania in macrophages: 26.56%; Toxoplasma: -5.615%.
For COC1CCN(C(=O)CCc2c(C)nc3ccnn3c2C)CC1 the result was Leishmania in macrophages: -1.917%; Toxoplasma: -4.583%.
For [H][C@]12CCCCN1CCC[C@H]2CCC(=O)NCc1cc(O)nc(C)n1 the result was Leishmania in macrophages: 43.18%; Toxoplasma: 0.5187%.
For N[C@H]1CC[C@@H](CN2CCCn3nc(CNC(=O)C4CCC4)cc3C2)CC1 the result was Leishmania in macrophages: -27.4%; Toxoplasma: -6.083%.
For CNC(=O)NC(=O)C(C)Nc1ccccc1OCCOC (centres undefined) the result was Leishmania in macrophages: 16.91%; Toxoplasma: 6.38%.
For CCc1nccn1C1CCCN(C(=O)c2cn3c(C)cccc3n2)C1 (centres undefined) the result was Leishmania in macrophages: 25.45%; Toxoplasma: 0.1508%.
For Cc1ccc(CCCC(=O)N2CCC(CS(N)(=O)=O)CC2)s1 the result was Leishmania in macrophages: 23.8% and -20.57%; Toxoplasma: 1.809%.
For O=C(NCC1CCN(Cc2cc3ccccc3[nH]2)C1)c1ccsc1 (centres undefined) the result was Leishmania in macrophages: 27.35% and 20.32%; Toxoplasma: 32.41%.
For COCCN(C)Cc1nc(-c2cccc(F)c2F)oc1C the result was Leishmania in macrophages: 28.93%; Toxoplasma: 8.086%.
For Cc1ccc(C(=O)N2CCC(Oc3c(C)cccc3C)CC2)c(=O)[nH]1 the result was Leishmania in macrophages: 17.03%; Toxoplasma: -23.99%.
For CCc1noc(C(C)N2CCOCC2)n1 (centres undefined) the result was Leishmania in macrophages: 9.994%; Toxoplasma: 14.78%.
For COCCN1CCC(CNC(=O)c2ccnc(-n3ccnc3)c2)CC1 the result was Leishmania in macrophages: -33.66%; Toxoplasma: 13.5%.
For COc1cnc(N2CCCC(c3ncc[nH]3)C2)nc1 (centres undefined) the result was Leishmania in macrophages: 24.57%; Toxoplasma: -1.095%.
For CN(C)C(=O)c1cccc(CCNc2ccccc2S(C)(=O)=O)c1 the result was Leishmania in macrophages: 7.886%; Toxoplasma: -56.45%.
For Cc1cc(C(=O)NCc2cccnc2N(C)C)c(C)o1 the result was Leishmania in macrophages: -14.83%; Toxoplasma: 1.587%.

5 of the entries, repeated:

| compound | Leishmania in macrophages | Toxoplasma |
|---|---|---|
| `COCCN1CCC(CNC(=O)c2ccnc(-n3ccnc3)c2)CC1` | -33.66 | 13.5 |
| `COc1ccc(CN(C)CC(=O)NC2(C)CCS(=O)(=O)C2)cc1F` (centres undefined) | -14.88 | -4.272 |
| `c1ccc(CO[C@H]2CN(c3ncccn3)C[C@@]23CCCO3)cc1` | -4.1 | -14.79 |
| `COC(=O)[C@@H]1Cc2ncn(C)c2CN1S(=O)(=O)c1cccs1` | -12.08 | -14.7 |
| `CN1CC(=O)N(C2CCNC2)Cc2c(NC3CCCC3)ncnc21` (centres undefined) | 14.3 | -6.311 |